The values that follow come from publication PMC9852543.

Amino acid sequences for entries named in this document (tags omitted).
UniProt Q8N122: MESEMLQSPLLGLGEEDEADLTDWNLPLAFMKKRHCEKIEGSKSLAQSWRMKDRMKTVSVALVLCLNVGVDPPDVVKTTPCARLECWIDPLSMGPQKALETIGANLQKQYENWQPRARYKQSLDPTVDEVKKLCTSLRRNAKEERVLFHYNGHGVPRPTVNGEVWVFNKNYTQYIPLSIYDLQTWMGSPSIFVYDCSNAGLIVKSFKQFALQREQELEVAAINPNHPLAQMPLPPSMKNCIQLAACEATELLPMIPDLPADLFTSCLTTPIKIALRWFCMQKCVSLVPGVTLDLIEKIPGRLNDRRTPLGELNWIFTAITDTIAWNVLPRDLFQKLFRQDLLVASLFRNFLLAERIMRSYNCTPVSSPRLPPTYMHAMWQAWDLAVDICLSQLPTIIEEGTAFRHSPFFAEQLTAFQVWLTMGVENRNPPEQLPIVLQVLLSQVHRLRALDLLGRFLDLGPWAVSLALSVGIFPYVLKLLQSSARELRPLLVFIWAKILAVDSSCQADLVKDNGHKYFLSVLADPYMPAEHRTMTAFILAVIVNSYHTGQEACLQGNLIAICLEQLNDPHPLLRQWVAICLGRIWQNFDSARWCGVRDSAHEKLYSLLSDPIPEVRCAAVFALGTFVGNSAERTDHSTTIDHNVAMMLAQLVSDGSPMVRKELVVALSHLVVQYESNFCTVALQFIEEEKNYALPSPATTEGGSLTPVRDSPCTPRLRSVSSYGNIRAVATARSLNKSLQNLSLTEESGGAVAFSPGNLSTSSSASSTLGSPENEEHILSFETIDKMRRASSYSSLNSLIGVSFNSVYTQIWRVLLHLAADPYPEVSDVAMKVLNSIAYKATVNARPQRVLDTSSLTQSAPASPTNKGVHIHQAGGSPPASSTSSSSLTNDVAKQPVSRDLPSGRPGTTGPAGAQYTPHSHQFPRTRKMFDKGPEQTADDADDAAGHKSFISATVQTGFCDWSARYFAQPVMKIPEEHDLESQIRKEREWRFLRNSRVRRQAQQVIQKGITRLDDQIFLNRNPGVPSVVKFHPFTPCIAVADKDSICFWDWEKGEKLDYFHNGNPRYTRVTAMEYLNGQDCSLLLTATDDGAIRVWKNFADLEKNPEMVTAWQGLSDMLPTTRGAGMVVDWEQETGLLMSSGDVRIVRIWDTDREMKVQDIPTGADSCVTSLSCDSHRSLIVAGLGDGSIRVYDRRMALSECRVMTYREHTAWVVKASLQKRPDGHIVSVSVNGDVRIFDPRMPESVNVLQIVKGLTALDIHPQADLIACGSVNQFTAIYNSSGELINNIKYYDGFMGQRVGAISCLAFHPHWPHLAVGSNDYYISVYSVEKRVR

The target in assay [1] is T1, FLAG-HA-Unkempt (mouse) (UniProt Q8BL48).
T1 sequence: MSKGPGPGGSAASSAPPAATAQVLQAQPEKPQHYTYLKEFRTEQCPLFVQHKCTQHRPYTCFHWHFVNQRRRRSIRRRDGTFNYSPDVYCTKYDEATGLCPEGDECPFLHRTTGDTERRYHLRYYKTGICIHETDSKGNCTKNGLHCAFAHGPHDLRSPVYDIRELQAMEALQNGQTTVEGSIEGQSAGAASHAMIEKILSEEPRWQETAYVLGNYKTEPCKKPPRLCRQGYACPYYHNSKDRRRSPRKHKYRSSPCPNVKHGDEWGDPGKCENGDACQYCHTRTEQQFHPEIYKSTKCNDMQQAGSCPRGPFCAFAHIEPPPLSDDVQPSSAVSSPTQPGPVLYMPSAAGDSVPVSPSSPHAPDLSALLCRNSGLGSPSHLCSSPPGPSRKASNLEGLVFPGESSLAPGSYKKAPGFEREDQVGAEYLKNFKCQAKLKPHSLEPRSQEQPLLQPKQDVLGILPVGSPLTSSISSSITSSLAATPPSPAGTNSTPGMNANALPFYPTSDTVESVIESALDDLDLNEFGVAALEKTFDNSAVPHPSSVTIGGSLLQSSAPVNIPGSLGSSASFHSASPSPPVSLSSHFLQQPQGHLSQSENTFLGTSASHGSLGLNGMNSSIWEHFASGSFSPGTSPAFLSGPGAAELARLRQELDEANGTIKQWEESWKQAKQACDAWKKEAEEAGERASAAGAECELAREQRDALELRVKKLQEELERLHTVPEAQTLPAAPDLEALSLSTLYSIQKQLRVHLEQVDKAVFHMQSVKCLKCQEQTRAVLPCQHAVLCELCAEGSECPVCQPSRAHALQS
Put plainly: co-IP; as a1, but with the other detergent (Triton X-100, which disrupts the interaction of Raptor with mTOR).

Assay [2] concerns the target T1, FLAG-HA-Unkempt (mouse). Put plainly: co-IP; FLAG-HA-Unkempt immunoprecipitated from HeLa S3 cells induced with 1 ug/ml doxycycline for 24 h; cells serum-starved, then insulin or rapamycin; non-induced cells (DOX-) as negative control; detergent under which mTOR co-precipitates (CHAPS, which preserves Raptor-mTOR).

Results are given in words; binding and its absence hold for the method and conditions named. Binding seen in cells or lysates may run through a third protein. Some results given as binding are weak or reduced against the parent protein; the word gives no strength. Tags and fused reporters may be left off the sequences shown.

On to “regulatory-associated protein of mTOR (Raptor) (from UniProt Q8N122 1-1335)”, for which the binding result in assay [1] and in assay [2] was “binds” throughout.
